Experimental data as given in publication PMC8661717.
Results are given in words; binding and its absence hold for the method and conditions named. Some entries that bind do so weakly or less than the wild type.

Columns and labels:
[1] = biological target: His6-MBP-tagged MERS nsp1, full length (MERS) (UniProt K9N7C7); test: pull-down; both purified
[2] = biological target: His6-MBP-tagged 229E nsp1, full length (human-infective coronavirus strain 229E) (UniProt P0C6X1); test: pull-down; both purified

Truncated human primosome (Pol α 334-1462; B subunit 149-598; PriS 1-420; PriL 1-509) (from UniProt P09884 334-1462; Q14181 149-598; P49642 1-420; P49643 1-509) (complex)
binding [1]: binds
binding [2]: no binding
